Results as given in patent publication US20060257358A1, “Suspension of calcium phosphate particulates for local delivery of therapeutic agents” (DePuy Products, Inc., priority 2005, published 2006).

Assay: Osteocalcin adsorption, elution and dissolution test on biomimetic apatite (HPLC)
Conditions: 20 μg protein
Experimental: The test with osteocalcin was conducted by incubating biomimetic apatite prepared on Ti6Al4V substrates with phosphate buffered saline (PBS) containing 0.1 mg/mL (bovine serum albumin) BSA. […] Eighty five percent of the original protein (20 μg) is adsorbed by biomimetic apatite crystals within 3 hours of test. An elution test was designed to further test the affinity of biomimetic apatite to osteocalcin in PBS containing 0.1 mg/mL BSA was measured (FIG. 6). Only ˜6% of the originally applied protein (20 μg) was eluted out from the biomimetic apatite crystals after 20 hours of incubation.

osteocalcin: a bone tissue specific protein (YLYQWLGAPVPYPDPLEPRREVCELNPDCDELADHIGFQEAYRRFYGPV; UniProt P02818 52-100, looked up)
originally applied protein eluted out from the biomimetic apatite crystals (PBS with 0.1 mg/mL BSA, after 20 hours of incubation): ~6% | protein recovered after dissolution of the minerals in acid (minerals fully dissolved in acid): ~64%
